For 5 molecules, binding results are on record in doi:10.1101/2025.08.29.668156.

This assay addresses T1, ST6GALNAC1 fused to ultraID (UniProt Q9NSC7).
T1 sequence: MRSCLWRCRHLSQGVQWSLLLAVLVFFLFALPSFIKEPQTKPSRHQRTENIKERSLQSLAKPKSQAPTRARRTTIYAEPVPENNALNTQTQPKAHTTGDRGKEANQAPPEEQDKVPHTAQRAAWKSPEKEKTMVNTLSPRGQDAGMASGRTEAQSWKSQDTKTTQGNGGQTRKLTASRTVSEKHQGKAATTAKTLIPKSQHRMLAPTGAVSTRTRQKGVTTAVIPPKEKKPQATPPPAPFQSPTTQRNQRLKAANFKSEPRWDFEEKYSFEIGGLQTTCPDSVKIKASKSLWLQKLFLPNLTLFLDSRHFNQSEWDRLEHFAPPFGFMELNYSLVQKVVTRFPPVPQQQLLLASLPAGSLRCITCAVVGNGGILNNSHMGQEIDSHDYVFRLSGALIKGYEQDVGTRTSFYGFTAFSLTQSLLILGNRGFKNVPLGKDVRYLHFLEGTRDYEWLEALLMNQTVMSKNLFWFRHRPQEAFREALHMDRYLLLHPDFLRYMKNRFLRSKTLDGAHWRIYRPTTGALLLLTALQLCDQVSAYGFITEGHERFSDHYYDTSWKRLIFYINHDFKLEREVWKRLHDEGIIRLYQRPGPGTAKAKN
In words: proximity labelling.

No constants are given. Whether binding was seen depends on the method and setting. Binding seen in cells or lysates may run through a third protein. A yes stands for co-enrichment or nearness to the bait. Other partners may have been found. Sequences can lack the tags named with a protein.

B1: MAN2A1 (protein, UniProt Q16706 1-1144)
chain: MKLSRQFTVFGSAIFCVVIFSLYLMLDRGHLDYPRNPRREGSFPQGQLSMLQEKIDHLERLLAENNEIISNIRDSVINLSESVEDGPKSSQSNFSQGAGSHLLPSQLSLSVDTADCLFASQSGSHNSDVQMLDVYSLISFDNPDGGVWKQGFDITYESNEWDTEPLQVFVVPHSHNDPGWLKTFNDYFRDKTQYIFNNMVLKLKEDSRRKFIWSEISYLSKWWDIIDIQKKDAVKSLIENGQLEIVTGGWVMPDEATPHYFALIDQLIEGHQWLENNIGVKPRSGWAIDPFGHSPTMAYLLNRAGLSHMLIQRVHYAVKKHFALHKTLEFFWRQNWDLGSVTDILCHMMPFYSYDIPHTCGPDPKICCQFDFKRLPGGRFGCPWGVPPETIHPGNVQSRARMLLDQYRKKSKLFRTKVLLAPLGDDFRYCEYTEWDLQFKNYQQLFDYMNSQSKFKVKIQFGTLSDFFDALDKADETQRDKGQSMFPVLSGDFFTYADRDDHYWSGYFTSRPFYKRMDRIMESHLRAAEILYYFALRQAHKYKINKFLSSSLYTALTEARRNLGLFQHHDAITGTAKDWVVVDYGTRLFHSLMVLEKIIGNSAFLLILKDKLTYDSYSPDTFLEMDLKQKSQDSLPQKNIIRLSAEPRYLVVYNPLEQDRISLVSVYVSSPTVQVFSASGKPVEVQVSAVWDTANTISETAYEISFRAHIPPLGLKVYKILESASSNSHLADYVLYKNKVEDSGIFTIKNMINTEEGITLENSFVLLRFDQTGLMKQMMTKEDGKHHEVNVQFSWYGTTIKRDKSGAYLFLPDGNAKPYVYTTPPFVRVTHGRIYSEVTCFFDHVTHRVRLYHIQGIEGQSVEVSNIVDIRKVYNREIAMKISSDIKSQNRFYTDLNGYQIQPRMTLSKLPLQANVYPMTTMAYIQDAKHRLTLLSAQSLGVSSLNSGQIEVIMDRRLMQDDNRGLEQGIQDNKITANLFRILLEKRSAVNTEEEKKSVSYPSLLSHITSSLMNHPVIPMANKFSSPTLELQGEFSPLQSSLPCDIHLVNLRTIQSKVGNGHSNEAALILHRKGFDCRFSSKGTGLFCSTTQGKILVQKLLNKFIVESLTPSSLSLMHSPPGTQNISEINLSPMEISTFRIQLR
On to B1, for which the binding entry was “binds”.

B2: CHPF2 (protein, UniProt Q9P2E5 1-772)
chain: MRLSSLLALLRPALPLILGLSLGCSLSLLRVSWIQGEGEDPCVEAVGERGGPQNPDSRARLDQSDEDFKPRIVPYYRDPNKPYKKVLRTRYIQTELGSRERLLVAVLTSRATLSTLAVAVNRTVAHHFPRLLYFTGQRGARAPAGMQVVSHGDERPAWLMSETLRHLHTHFGADYDWFFIMQDDTYVQAPRLAALAGHLSINQDLYLGRAEEFIGAGEQARYCHGGFGYLLSRSLLLRLRPHLDGCRGDILSARPDEWLGRCLIDSLGVGCVSQHQGQQYRSFELAKNRDPEKEGSSAFLSAFAVHPVSEGTLMYRLHKRFSALELERAYSEIEQLQAQIRNLTVLTPEGEAGLSWPVGLPAPFTPHSRFEVLGWDYFTEQHTFSCADGAPKCPLQGASRADVGDALETALEQLNRRYQPRLRFQKQRLLNGYRRFDPARGMEYTLDLLLECVTQRGHRRALARRVSLLRPLSRVEILPMPYVTEATRVQLVLPLLVAEAAAAPAFLEAFAANVLEPREHALLTLLLVYGPREGGRGAPDPFLGVKAAAAELERRYPGTRLAWLAVRAEAPSQVRLMDVVSKKHPVDTLFFLTTVWTRPGPEVLNRCRMNAISGWQAFFPVHFQEFNPALSPQRSPPGPPGAGPDPPSPPGADPSRGAPIGGRFDRQASAEGCFYNADYLAARARLAGELAGQEEEEALEGLEVMDVFLRFSGLHLFRAVEPGLVQKFSLRDCSPRLSEELYHRCRLSNLEGLGGRAQLAMALFEQEQANST
Turning to B2, the binding result is “binds”.

B3: CHPF (protein, UniProt Q8IZ52 1-775)
chain: MRASLLLSVLRPAGPVAVGISLGFTLSLLSVTWVEEPCGPGPPQPGDSELPPRGNTNAARRPNSVQPGAEREKPGAGEGAGENWEPRVLPYHPAQPGQAAKKAVRTRYISTELGIRQRLLVAVLTSQTTLPTLGVAVNRTLGHRLERVVFLTGARGRRAPPGMAVVTLGEERPIGHLHLALRHLLEQHGDDFDWFFLVPDTTYTEAHGLARLTGHLSLASAAHLYLGRPQDFIGGEPTPGRYCHGGFGVLLSRMLLQQLRPHLEGCRNDIVSARPDEWLGRCILDATGVGCTGDHEGVHYSHLELSPGEPVQEGDPHFRSALTAHPVRDPVHMYQLHKAFARAELERTYQEIQELQWEIQNTSHLAVDGDQAAAWPVGIPAPSRPASRFEVLRWDYFTEQHAFSCADGSPRCPLRGADRADVADVLGTALEELNRRYHPALRLQKQQLVNGYRRFDPARGMEYTLDLQLEALTPQGGRRPLTRRVQLLRPLSRVEILPVPYVTEASRLTVLLPLAAAERDLAPGFLEAFATAALEPGDAAAALTLLLLYEPRQAQRVAHADVFAPVKAHVAELERRFPGARVPWLSVQTAAPSPLRLMDLLSKKHPLDTLFLLAGPDTVLTPDFLNRCRMHAISGWQAFFPMHFQAFHPAVAPPQGPGPPELGRDTGRFDRQAASEACFYNSDYVAARGRLAAASEQEEELLESLDVYELFLHFSSLHVLRAVEPALLQRYRAQTCSARLSEDLYHRCLQSVLEGLGSRTQLAMLLFEQEQGNST
Turning to B3, the binding entry is recorded as “binds”.

B4: GALNT3 (protein, UniProt Q14435 1-633)
chain: MAHLKRLVKLHIKRHYHKKFWKLGAVIFFFIIVLVLMQREVSVQYSKEESRMERNMKNKNKMLDLMLEAVNNIKDAMPKMQIGAPVRQNIDAGERPCLQGYYTAAELKPVLDRPPQDSNAPGASGKAFKTTNLSVEEQKEKERGEAKHCFNAFASDRISLHRDLGPDTRPPECIEQKFKRCPPLPTTSVIIVFHNEAWSTLLRTVHSVLYSSPAILLKEIILVDDASVDEYLHDKLDEYVKQFSIVKIVRQRERKGLITARLLGATVATAETLTFLDAHCECFYGWLEPLLARIAENYTAVVSPDIASIDLNTFEFNKPSPYGSNHNRGNFDWSLSFGWESLPDHEKQRRKDETYPIKTPTFAGGLFSISKEYFEYIGSYDEEMEIWGGENIEMSFRVWQCGGQLEIMPCSVVGHVFRSKSPHSFPKGTQVIARNQVRLAEVWMDEYKEIFYRRNTDAAKIVKQKAFGDLSKRFEIKHRLQCKNFTWYLNNIYPEVYVPDLNPVISGYIKSVGQPLCLDVGENNQGGKPLIMYTCHGLGGNQYFEYSAQHEIRHNIQKELCLHAAQGLVQLKACTYKGHKTVVTGEQIWEIQKDQLLYNPFLKMCLSANGEHPSLVSCNPSDPLQKWILSQND
On to B4, for which the binding entry is listed as “binds”.

B5: MAN2A2 (protein, UniProt P49641 1-1150)
chain: MKLKKQVTVCGAAIFCVAVFSLYLMLDRVQHDPTRHQNGGNFPRSQISVLQNRIEQLEQLLEENHEIISHIKDSVLELTANAEGPPAMLPYYTVNGSWVVPPEPRPSFFSISPQDCQFALGGRGQKPELQMLTVSEELPFDNVDGGVWRQGFDISYDPHDWDAEDLQVFVVPHSHNDPGWIKTFDKYYTEQTQHILNSMVSKLQEDPRRRFLWAEVSFFAKWWDNINVQKRAAVRRLVGNGQLEIATGGWVMPDEANSHYFALIDQLIEGHQWLERNLGATPRSGWAVDPFGYSSTMPYLLRRANLTSMLIQRVHYAIKKHFAATHSLEFMWRQTWDSDSSTDIFCHMMPFYSYDVPHTCGPDPKICCQFDFKRLPGGRINCPWKVPPRAITEANVAERAALLLDQYRKKSQLFRSNVLLVPLGDDFRYDKPQEWDAQFFNYQRLFDFFNSRPNLHVQAQFGTLSDYFDALYKRTGVEPGARPPGFPVLSGDFFSYADREDHYWTGYYTSRPFYKSLDRVLEAHLRGAEVLYSLAAAHARRSGLAGRYPLSDFTLLTEARRTLGLFQHHDAITGTAKEAVVVDYGVRLLRSLVNLKQVIIHAAHYLVLGDKETYHFDPEAPFLQVDDTRLSHDALPERTVIQLDSSPRFVVLFNPLEQERFSMVSLLVNSPRVRVLSEEGQPLAVQISAHWSSATEAVPDVYQVSVPVRLPALGLGVLQLQLGLDGHRTLPSSVRIYLHGRQLSVSRHEAFPLRVIDSGTSDFALSNRYMQVWFSGLTGLLKSIRRVDEEHEQQVDMQVLVYGTRTSKDKSGAYLFLPDGEAKPYVPKEPPVLRVTEGPFFSEVVAYYEHIHQAVRLYNLPGVEGLSLDISSLVDIRDYVNKELALHIHTDIDSQGIFFTDLNGFQVQPRRYLKKLPLQANFYPMPVMAYIQDAQKRLTLHTAQALGVSSLKDGQLEVILDRRLMQDDNRGLGQGLKDNKRTCNRFRLLLERRTVGSEVQDSHSTSYPSLLSHLTSMYLNAPALALPVARMQLPGPGLRSFHPLASSLPCDFHLLNLRTLQAEEDTLPSAETALILHRKGFDCGLEAKNLGFNCTTSQGKVALGSLFHGLDVVFLQPTSLTLLYPLASPSNSTDVYLEPMEIATFRLRLG
With B5, the binding result is reported as “binds”.
